Data taken from US8822466B2, “Isoxazole derivatives” (Novartis AG, priority 2011, dated 2014).
Some results were stated once for a whole list of compounds, not compound by compound. At least one compound was matched to its structure with a doubt left.

Assays:
[1] = tested on: Ctenocephalides felis (cat flea); experiment: Activity in vitro against Ctenocephalides felis (cat flea), artificial blood feeding system; details: 100 ppm; mixed adult fleas fed on treated blood for 24 hours
[2] = tested on: Rhipicephalus sanguineus (dog tick); experiment: Activity in vitro against Rhipicephalus sanguineus (dog tick), contact test; details: 640 ppm, 10 minutes contact, incubated at 28° C. and 80% relative humidity for 7 days
[3] = tested on: Ctenocephalides felis (cat flea); experiment: Activity in vivo against Ctenocephalides felis (cat flea) on Mongolian gerbils (spray application); details: 100 mg/kg spray or spot-on application; Mongolian gerbils (Meriones unguiculatus); infested day +1; evaluated 24 h and 48 h after infestation
[4] = tested on: Rhipicephalus sanguineus nymphs; experiment: Activity in vivo against Rhipicephalus sanguineus nymphs on Mongolian gerbils (spray application); details: 10 mg/kg spray application; Mongolian gerbils (Meriones unguiculatus); infested day +1 (+2); engorged nymphs counted seven days after infestation
[5] = tested on: Rhipicephalus sanguineus nymphs; experiment: Activity in vivo against Rhipicephalus sanguineus nymphs on Mongolian gerbils (per oral application); details: 100 mg/kg orally by gavage; Mongolian gerbils (Meriones unguiculatus); engorged nymphs counted seven days after infestation

| Compound | efficacy (EC80), insecticidal activity by number of dead fleas [1] | efficacy (EC80), acaricidal activity, adult ticks dead [2] | efficacy (EC80), tick number reduction versus placebo treated group, Abbot's formula [4] | other results |
| --- | --- | --- | --- | --- |
| Cc1sc(C2=NOC(c3cc(Cl)c(Cl)c(Cl)c3)(C(F)(F)F)C2)cc1CNC(=O)c1ccncc1 (stereo not shown) [Compound 1.18] | more than 80% |  |  |  |
| Cc1sc(C2=NOC(c3cc(Cl)cc(Cl)c3)(C(F)(F)F)C2)cc1CNC(=O)CC(F)(F)F (stereo not shown) [Compound 1.12] | more than 80% | more than 80% |  |  |
| CCC(=O)NCc1cc(C2=NOC(c3cc(Cl)c(Cl)c(Cl)c3)(C(F)(F)F)C2)oc1C (stereo not shown) [Compound 2.1] |  |  | more than 80% | efficacy (EC80), live fleas recovered versus placebo treated group, Abbot's formula [3]: more than 80%; efficacy (EC90), tick number reduction versus placebo treated group, Abbot's formula [5]: more than 90% |
| CSCC(=O)NCc1cc(C2=NOC(c3cc(Cl)cc(Cl)c3)(C(F)(F)F)C2)sc1C (stereo not shown) [Compound 1.32] | more than 80% | more than 80% |  |  |
| Cc1sc(C2=NOC(c3cc(Cl)c(Cl)c(Cl)c3)(C(F)(F)F)C2)cc1CNC(=O)c1ccccc1 (stereo not shown) [Compound 1.21] | more than 80% |  |  |  |
| CCC(=O)NCc1cc(C2=NOC(c3cc(Cl)cc(Cl)c3)(C(F)(F)F)C2)sc1C (stereo not shown) [Compound 1.6, N-{5-[5-(3,5-dichloro-phenyl)-5-trifluoromethyl-4,5-dihydro-isoxazol-3-yl]-2-methyl-thiophen-3-ylmethyl}-propionamide] | more than 80% | more than 80% | more than 80% |  |
| Cc1sc(C2=NOC(c3cc(Cl)c(Cl)c(Cl)c3)(C(F)(F)F)C2)cc1CNC(=O)C1CCCCC1 (stereo not shown) [Compound 1.5] | more than 80% | more than 80% |  |  |
| CSCCC(=O)NCc1cc(C2=NOC(c3cc(Cl)c(Cl)c(Cl)c3)(C(F)(F)F)C2)oc1C (stereo not shown) [Compound 2.15] |  |  | more than 80% |  |
| Cc1oc(C2=NOC(c3cc(Cl)c(Cl)c(Cl)c3)(C(F)(F)F)C2)cc1CNC(=O)C1CCC1 (stereo not shown) [Compound 2.7] |  |  | more than 80% |  |
| Cc1sc(C2=NOC(c3cc(Cl)c(Cl)c(Cl)c3)(C(F)(F)F)C2)cc1CNC(=O)C1CC1 (stereo not shown) [Compound 1.56] |  |  | more than 80% |  |
| COc1cccc(C(=O)NCc2cc(C3=NOC(c4cc(Cl)c(Cl)c(Cl)c4)(C(F)(F)F)C3)sc2C)c1 (stereo not shown) [Compound 1.26] | more than 80% |  |  |  |
| Cc1sc(C2=NOC(c3cc(Cl)cc(Cl)c3)(C(F)(F)F)C2)cc1CNC(=O)C1CC1 (stereo not shown) [Compound 1.2] |  |  |  | efficacy (EC90), tick number reduction versus placebo treated group, Abbot's formula [5]: more than 90% |
| COCCC(=O)NCc1cc(C2=NOC(c3cc(Cl)c(Cl)c(Cl)c3)(C(F)(F)F)C2)oc1C (stereo not shown) [Compound 2.14] |  |  | more than 80% | efficacy (EC80), live fleas recovered versus placebo treated group, Abbot's formula [3]: more than 80% |
| CCC(=O)NCc1cc(C2=NOC(c3cc(Cl)c(Cl)c(Cl)c3)(C(F)(F)F)C2)sc1C (stereo not shown) [Compound 1.55] |  |  | more than 80% |  |
| CC#CC(=O)NCc1cc(C2=NOC(c3cc(Cl)c(Cl)c(Cl)c3)(C(F)(F)F)C2)sc1C (stereo not shown) [Compound 1.51] | more than 80% |  |  |  |
| CCCC(=O)NCc1cc(C2=NOC(c3cc(Cl)cc(Cl)c3)(C(F)(F)F)C2)sc1C (stereo not shown) [Compound 1.8] | more than 80% | more than 80% |  |  |
| COCC(=O)NCc1cc(C2=NOC(c3cc(Cl)cc(Cl)c3)(C(F)(F)F)C2)sc1C (stereo not shown) [Compound 1.28] | more than 80% | more than 80% |  |  |
| CSCC(=O)NCc1cc(C2=NOC(c3cc(Cl)c(Cl)c(Cl)c3)(C(F)(F)F)C2)oc1C (stereo not shown) [Compound 2.9] |  |  |  | efficacy (EC80), live fleas recovered versus placebo treated group, Abbot's formula [3]: more than 80% |
| Cc1oc(C2=NOC(c3cc(Cl)c(Cl)c(Cl)c3)(C(F)(F)F)C2)cc1CNC(=O)C1CCOC1 (stereo not shown) [Compound 2.3, tetrahydro-furan-3-carboxylic acid {2-methyl-5-[5-(3,4,5-trichloro-phenyl)-5-trifluoromethyl-4,5-dihydro-isoxazol-3-yl]-furan-3-ylmethyl}-amide] |  |  |  | efficacy (EC80), live fleas recovered versus placebo treated group, Abbot's formula [3]: more than 80% |
| Cc1sc(C2=NOC(c3cc(Cl)c(Cl)c(Cl)c3)(C(F)(F)F)C2)cc1CNC(=O)c1ccncn1 (stereo not shown) [Compound 1.20] | more than 80% |  |  |  |
| COCC(=O)NCc1cc(C2=NOC(c3cc(Cl)c(Cl)c(Cl)c3)(C(F)(F)F)C2)oc1C (stereo not shown) [Compound 2.12] |  |  |  | efficacy (EC80), live fleas recovered versus placebo treated group, Abbot's formula [3]: more than 80% |
| CSCCC(=O)NCc1cc(C2=NOC(c3cc(Cl)cc(Cl)c3)(C(F)(F)F)C2)sc1C (stereo not shown) [Compound 1.36] |  |  | more than 80% |  |
| COCCC(=O)NCc1cc(C2=NOC(c3cc(Cl)c(Cl)c(Cl)c3)(C(F)(F)F)C2)sc1C (stereo not shown) [Compound 1.30] | more than 80% | more than 80% |  |  |
